The target of this assay is DUX4c (Strep-tagged) (UniProt Q6RFH8). Nature of the assay: affinity purification with mass spectrometry.

The chains behind the UniProt entries cited, without tags or fusion partners. Where a name states a change or a piece, a line headed by the entry shows the natural chain unless it says otherwise.
UniProt Q6RFH8, whole entry, stated change not applied: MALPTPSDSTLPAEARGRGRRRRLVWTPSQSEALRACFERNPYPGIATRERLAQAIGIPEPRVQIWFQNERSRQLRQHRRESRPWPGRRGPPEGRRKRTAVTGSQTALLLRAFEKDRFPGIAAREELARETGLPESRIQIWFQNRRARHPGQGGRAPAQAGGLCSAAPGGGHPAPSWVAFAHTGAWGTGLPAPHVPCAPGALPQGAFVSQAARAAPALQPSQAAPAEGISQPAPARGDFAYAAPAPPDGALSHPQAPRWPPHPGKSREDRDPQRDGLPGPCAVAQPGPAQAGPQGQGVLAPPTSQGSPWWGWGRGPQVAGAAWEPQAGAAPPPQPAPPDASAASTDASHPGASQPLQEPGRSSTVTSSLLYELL

These are yes or no findings as the source states them, for the method shown. Binding seen in cells or lysates may run through a third protein. A yes stands for co-enrichment or nearness to the bait. Other partners may have been found. Tags and fused reporters may be left off the sequences shown.

B1: RFPL4A (untagged, overexpressed) (protein, UniProt A6NLU0 1-287)
chain: MAEHFKQIIRCPVCLKDLEEAVQLKCGYACCLQCLNSLQKEPDGEGLLCRFCSVVSQKDDIKPKYKLRALVSIIKELEPKLKSVLTMNPRMRKFQVDMTFDVDTANNYLIISEDLRSFRSGDLSQNRKEQAERFDTALCVLGTPRFTSGRHYWEVDVGTSQVWDVGVCKESVNRQGKIVLSSEHGFLTVGCREGKVFAASTVPMTPLWVSPQLHRVGIFLDVGMRSIAFYNVSDGCHIYTFIEIPVCEPWRPFFAHKRGSQDDQSILSICSVINPSAASAPVSSEGK
Consider B1, for which the binding result is “binds”.

For the origin of these results see article doi:10.1101/2023.09.12.557395.
